In all, about 360,000 compounds went through this assay and about 7,500 (2.1%) were called active. The inconclusive results got no clear call from the source; some entries with a clear call stand among them for comparison. The call rests on the fitted dose curve; in most records, active means well fitted inhibition curve with a large enough effect; inconclusive means small, poorly fitted or top-dose-only effect, or effect the other way; inactive means flat fitted curve, though single readings scatter. A potency beside an inconclusive call is a rough fit, not a confirmed value.
Assay: Nrf2 qHTS screen for inhibitors; further: nearly all actives have a fitted effect of over 60% in size
Conditions: A549 ARE-Fluc reporter, luciferase luminescence, 18-24 h; series mostly up to 46 µM
In short: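 Concentration-response testing used A549 ARE_Fluc cells at 5000 cells/well. Following an 18-24 h compound incubation, viability was read by fluorescence (Ex 405/Em 525) and luciferase output by luminescence.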
Potency means the concentration at half of the fitted maximal effect.

Q: With `CC(C)(C)SCCNS(=O)(=O)c1ccccc1` as the molecule, how does the Potency read?
A: inconclusive: 1.3 µM [falling, partial curve, poor fit]

Q: Which Potency does the source give for `COc1ccc(C2=NS(=O)(=O)N(C)C(C(=O)Nc3cc(C)ccc3O)=C2)cc1OC` here?
A: inconclusive: 23.1 µM [activator, partial curve]

Q: Which Potency does the source give for `Cc1cc2cc(CCNC(=O)C(=O)c3c[nH]c4ccccc34)c(=O)[nH]c2cc1C` here?
A: inconclusive: 18.4 µM [falling, single point]

Q: With `Cc1ccc(NC(=O)CN2CCCC2c2cccn2C)cc1C` (stereo not drawn) as the molecule, how does the Potency read?
A: inconclusive: 29.1 µM [activator, single point]

Q: For `CC(C)NC(=S)NN=C1CCC(c2ccccc2)CC1` (stereo not drawn), which Potency is on record?
A: inconclusive: 29.1 µM [activator, partial curve, poor fit]

Q: For `COC(=O)c1cc(NC(=O)Nc2cccc(Cl)c2)ccc1Cl`, which Potency is on record?
A: inconclusive: 20.6 µM [falling, single point]

Q: For `CCCn1nnc(NC(=O)c2sc3ccccc3c2Cl)n1`, which Potency is on record?
A: inconclusive: 14.6 µM [activator, partial curve]

Q: With `C=CCNC(=O)NC(=O)COC(=O)CCCSc1nc2ccccc2[nH]1` as the molecule, how does the Potency read?
A: inconclusive: 2.31 µM [activator, partial curve]

Q: Which Potency does the source give for `COc1ccc(C2CC(c3cccs3)=NN2C(=O)CSc2nc3ccccc3s2)cc1` (stereo not drawn) here?
A: inactive

Q: For `CCOc1ccc(/C=C/C(=O)CCC(=O)O)cc1`, which Potency is on record?
A: inconclusive: 0.517 µM [activator, full curve, poor fit]

Q: Which Potency does the source give for `CS(=O)(=O)N(Cc1ccc(Cl)cc1)c1ccc(C(=O)NCCSCc2ccco2)cc1` here?
A: inconclusive: 20.6 µM [falling, single point]

Q: Which Potency does the source give for `O=C1CCc2cc(S(=O)(=O)Nc3ccc4ccccc4c3)ccc2N1` here?
A: inconclusive: 23.1 µM [falling, partial curve]

Q: For `N#CC(C(=O)Nc1ccc(Cl)cc1)=C1Nc2ccccc2N1`, which Potency is on record?
A: inconclusive: 20.6 µM [falling, single point]

Q: With `Clc1c(-c2ccccc2)nnn1-c1ccccc1` as the molecule, how does the Potency read?
A: inconclusive: 5.8 µM [activator, partial curve]

Q: Which Potency does the source give for `COc1ccc(NC(=O)c2cnn(-c3ccccc3)c2C)cc1` here?
A: inconclusive: 0.82 µM [activator, full curve, poor fit]

Q: With `CC(OC(=O)CN(C)S(=O)(=O)c1ccc(Cl)cc1)C(=O)Nc1ccc(N2CCOCC2)cc1` (stereo not drawn) as the molecule, how does the Potency read?
A: inconclusive: 29.1 µM [activator, single point]

Q: For `CC(C)CC(=NNC(=O)c1ccncc1)c1cc(Cl)ccc1O`, which Potency is on record?
A: active: 6.51 µM

Q: With `S=C(Nc1ccccc1Cl)NC1CC2CCCC(C1)N2C1CC1` (stereo not drawn) as the molecule, how does the Potency read?
A: inconclusive: 3.26 µM [falling, full curve, poor fit]
